Test results from the supplement of paper PMC10849652.
Some of the results follow.

Chains of the proteins cited; added tags and fusions are not shown. Lines headed by an entry give the natural chain unless they say otherwise; changes in a name come on top.
UniProt P51956: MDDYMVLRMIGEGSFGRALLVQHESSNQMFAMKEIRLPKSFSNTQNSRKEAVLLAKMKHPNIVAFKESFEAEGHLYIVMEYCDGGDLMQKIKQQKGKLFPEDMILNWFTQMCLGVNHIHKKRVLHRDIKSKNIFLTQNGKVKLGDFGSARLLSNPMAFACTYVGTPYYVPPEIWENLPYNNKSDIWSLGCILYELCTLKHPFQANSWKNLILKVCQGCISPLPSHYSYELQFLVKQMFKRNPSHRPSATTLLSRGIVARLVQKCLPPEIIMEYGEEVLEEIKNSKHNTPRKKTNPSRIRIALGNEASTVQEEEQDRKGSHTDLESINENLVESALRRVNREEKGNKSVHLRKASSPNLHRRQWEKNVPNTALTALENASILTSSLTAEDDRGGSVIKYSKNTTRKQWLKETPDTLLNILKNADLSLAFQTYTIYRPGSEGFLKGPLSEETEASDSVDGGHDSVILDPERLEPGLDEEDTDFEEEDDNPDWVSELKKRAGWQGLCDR
UniProt P25208: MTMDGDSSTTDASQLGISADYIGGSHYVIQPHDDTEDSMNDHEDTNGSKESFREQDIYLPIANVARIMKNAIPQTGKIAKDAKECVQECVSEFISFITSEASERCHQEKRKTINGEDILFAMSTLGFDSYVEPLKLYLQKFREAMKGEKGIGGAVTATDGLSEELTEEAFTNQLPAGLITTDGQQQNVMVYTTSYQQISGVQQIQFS
UniProt Q12986: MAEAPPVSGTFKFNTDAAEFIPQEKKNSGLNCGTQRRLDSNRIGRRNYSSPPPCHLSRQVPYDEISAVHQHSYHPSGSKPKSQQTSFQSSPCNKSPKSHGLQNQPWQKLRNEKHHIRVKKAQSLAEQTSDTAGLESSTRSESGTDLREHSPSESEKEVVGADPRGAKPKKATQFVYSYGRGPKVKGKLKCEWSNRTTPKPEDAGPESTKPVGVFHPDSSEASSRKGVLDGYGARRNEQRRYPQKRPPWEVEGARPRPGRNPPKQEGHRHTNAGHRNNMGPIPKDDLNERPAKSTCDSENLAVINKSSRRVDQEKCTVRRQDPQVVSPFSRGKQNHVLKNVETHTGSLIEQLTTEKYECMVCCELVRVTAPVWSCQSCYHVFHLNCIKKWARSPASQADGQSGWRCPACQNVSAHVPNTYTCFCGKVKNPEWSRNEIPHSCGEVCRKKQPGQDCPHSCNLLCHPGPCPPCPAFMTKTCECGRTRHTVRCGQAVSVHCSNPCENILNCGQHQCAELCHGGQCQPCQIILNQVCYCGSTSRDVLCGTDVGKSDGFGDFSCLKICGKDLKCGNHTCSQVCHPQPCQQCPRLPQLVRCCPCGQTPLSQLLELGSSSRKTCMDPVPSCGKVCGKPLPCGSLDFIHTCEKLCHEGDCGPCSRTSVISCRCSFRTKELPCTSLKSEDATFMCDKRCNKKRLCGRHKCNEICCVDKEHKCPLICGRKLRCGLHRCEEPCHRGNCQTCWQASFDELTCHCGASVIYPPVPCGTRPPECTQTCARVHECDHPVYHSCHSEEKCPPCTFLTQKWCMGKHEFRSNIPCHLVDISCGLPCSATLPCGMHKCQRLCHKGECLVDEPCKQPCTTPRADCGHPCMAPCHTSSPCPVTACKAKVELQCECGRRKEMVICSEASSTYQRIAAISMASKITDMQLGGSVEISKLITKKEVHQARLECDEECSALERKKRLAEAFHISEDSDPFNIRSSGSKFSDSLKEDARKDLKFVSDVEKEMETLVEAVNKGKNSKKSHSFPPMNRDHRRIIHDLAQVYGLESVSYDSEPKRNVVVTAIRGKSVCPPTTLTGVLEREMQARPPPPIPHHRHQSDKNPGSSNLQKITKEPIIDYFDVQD
UniProt Q8WX92, whole entry, looked up: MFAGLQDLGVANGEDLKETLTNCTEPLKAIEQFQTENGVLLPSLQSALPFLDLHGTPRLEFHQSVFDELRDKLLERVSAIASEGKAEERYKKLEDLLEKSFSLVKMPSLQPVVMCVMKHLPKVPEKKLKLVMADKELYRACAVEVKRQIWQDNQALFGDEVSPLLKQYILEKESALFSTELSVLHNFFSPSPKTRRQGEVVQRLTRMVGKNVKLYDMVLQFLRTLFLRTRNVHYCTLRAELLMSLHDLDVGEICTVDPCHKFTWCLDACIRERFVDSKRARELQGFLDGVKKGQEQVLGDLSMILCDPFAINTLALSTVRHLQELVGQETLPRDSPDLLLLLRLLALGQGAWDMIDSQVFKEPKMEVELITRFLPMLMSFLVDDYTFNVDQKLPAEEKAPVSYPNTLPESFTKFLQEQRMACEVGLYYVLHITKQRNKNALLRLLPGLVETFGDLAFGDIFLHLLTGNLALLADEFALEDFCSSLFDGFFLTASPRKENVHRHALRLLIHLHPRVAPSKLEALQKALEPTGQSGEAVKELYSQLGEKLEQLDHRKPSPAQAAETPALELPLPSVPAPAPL
UniProt P40261: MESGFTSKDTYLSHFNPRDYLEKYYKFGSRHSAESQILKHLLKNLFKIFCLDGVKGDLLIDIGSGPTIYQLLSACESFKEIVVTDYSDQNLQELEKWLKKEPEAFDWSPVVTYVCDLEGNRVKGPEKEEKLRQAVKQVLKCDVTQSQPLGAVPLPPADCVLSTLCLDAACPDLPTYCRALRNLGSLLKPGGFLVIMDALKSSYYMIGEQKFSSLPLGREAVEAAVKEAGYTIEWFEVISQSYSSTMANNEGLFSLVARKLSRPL
UniProt Q96D46: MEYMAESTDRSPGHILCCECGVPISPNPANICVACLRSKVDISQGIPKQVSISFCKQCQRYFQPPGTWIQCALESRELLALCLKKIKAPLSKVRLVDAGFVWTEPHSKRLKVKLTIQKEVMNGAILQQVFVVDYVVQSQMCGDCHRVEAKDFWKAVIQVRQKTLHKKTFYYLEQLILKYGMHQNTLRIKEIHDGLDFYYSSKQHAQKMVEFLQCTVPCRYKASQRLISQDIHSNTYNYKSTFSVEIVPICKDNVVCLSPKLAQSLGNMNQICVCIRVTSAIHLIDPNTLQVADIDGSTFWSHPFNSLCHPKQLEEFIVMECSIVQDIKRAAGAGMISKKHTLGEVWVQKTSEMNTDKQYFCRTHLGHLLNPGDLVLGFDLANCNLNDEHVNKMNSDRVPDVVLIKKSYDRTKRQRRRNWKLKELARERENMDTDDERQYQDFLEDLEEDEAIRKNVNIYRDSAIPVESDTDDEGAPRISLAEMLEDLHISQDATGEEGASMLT
UniProt Q96IY1: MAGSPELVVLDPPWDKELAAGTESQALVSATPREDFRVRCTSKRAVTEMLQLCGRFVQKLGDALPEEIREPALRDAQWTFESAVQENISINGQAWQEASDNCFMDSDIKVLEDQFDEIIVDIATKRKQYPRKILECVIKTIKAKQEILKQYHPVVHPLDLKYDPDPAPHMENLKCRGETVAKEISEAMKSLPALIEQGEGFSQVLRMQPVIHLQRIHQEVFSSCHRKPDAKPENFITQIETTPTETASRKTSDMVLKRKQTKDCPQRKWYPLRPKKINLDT
UniProt Q9HBL8: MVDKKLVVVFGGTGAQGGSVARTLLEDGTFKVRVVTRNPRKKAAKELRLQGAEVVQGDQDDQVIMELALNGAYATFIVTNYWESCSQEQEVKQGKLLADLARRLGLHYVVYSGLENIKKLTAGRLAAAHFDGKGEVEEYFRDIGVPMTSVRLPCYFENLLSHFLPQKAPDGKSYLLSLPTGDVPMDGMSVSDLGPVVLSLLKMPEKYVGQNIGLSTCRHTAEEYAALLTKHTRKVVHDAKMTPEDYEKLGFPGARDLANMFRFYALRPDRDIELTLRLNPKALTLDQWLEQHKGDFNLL
UniProt Q8NCF5: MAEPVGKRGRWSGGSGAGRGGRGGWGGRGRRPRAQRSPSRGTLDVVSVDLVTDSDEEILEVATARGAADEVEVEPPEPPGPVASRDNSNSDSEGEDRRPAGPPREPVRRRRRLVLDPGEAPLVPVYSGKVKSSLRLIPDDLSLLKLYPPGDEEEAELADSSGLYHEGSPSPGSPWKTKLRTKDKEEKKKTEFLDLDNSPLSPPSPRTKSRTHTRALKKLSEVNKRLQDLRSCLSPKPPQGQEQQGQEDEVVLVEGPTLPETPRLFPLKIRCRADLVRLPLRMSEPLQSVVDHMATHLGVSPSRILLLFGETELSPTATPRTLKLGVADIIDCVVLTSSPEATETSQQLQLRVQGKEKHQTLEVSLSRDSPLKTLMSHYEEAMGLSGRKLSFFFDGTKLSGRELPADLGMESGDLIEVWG
UniProt P49116: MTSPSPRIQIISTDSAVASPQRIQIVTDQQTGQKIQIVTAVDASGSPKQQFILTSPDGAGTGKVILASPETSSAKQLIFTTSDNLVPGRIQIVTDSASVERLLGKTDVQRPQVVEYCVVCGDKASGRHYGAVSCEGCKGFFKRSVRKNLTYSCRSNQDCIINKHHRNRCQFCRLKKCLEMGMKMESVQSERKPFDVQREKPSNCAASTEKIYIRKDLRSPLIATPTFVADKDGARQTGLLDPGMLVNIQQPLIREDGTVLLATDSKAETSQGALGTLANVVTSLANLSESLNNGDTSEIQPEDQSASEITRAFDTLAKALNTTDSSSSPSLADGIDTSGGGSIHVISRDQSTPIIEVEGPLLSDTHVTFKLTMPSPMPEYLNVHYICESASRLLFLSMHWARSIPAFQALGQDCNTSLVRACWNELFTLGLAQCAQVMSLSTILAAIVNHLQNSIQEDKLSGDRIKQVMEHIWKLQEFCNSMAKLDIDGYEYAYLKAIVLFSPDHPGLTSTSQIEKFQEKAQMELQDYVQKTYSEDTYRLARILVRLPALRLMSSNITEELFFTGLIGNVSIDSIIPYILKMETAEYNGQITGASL
UniProt P55786: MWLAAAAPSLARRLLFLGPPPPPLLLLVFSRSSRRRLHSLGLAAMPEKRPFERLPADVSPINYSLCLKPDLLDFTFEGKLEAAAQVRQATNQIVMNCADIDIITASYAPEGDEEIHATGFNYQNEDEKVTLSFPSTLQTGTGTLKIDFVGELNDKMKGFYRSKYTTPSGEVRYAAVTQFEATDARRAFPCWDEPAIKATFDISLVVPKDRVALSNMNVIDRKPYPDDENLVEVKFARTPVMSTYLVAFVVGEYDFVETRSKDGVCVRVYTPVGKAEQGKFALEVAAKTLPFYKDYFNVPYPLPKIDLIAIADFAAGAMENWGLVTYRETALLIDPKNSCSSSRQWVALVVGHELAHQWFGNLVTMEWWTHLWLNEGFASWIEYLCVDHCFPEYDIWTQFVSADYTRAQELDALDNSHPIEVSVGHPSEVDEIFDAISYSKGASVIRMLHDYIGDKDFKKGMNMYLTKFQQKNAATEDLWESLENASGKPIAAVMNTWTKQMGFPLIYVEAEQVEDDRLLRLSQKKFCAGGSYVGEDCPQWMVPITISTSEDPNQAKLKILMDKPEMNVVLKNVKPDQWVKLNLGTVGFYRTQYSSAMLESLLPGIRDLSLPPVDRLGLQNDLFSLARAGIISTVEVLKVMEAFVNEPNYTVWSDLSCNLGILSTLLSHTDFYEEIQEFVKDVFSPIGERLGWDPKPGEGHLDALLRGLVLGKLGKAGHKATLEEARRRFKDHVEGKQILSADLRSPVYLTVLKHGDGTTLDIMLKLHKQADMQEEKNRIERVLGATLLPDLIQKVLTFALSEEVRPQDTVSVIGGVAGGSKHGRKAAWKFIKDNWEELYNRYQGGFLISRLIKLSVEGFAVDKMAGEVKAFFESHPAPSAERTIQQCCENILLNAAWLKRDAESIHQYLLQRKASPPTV
UniProt Q9UQ49: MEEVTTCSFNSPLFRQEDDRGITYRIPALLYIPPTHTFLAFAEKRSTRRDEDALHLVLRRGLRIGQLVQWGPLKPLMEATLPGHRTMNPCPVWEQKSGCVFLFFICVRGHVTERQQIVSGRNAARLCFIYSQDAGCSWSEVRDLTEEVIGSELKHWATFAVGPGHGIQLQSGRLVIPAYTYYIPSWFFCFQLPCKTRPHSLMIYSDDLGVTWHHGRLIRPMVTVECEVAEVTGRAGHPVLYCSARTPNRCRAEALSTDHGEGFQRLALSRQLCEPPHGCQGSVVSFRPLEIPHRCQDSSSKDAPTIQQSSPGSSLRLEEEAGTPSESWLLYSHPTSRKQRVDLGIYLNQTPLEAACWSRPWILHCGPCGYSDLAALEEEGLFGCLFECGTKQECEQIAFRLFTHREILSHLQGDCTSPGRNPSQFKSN
UniProt O00746: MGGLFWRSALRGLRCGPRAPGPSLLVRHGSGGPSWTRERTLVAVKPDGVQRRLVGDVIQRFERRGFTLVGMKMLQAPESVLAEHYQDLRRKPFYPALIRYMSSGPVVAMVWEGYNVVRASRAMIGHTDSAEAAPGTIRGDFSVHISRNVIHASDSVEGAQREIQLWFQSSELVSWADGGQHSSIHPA
UniProt Q9NWW6: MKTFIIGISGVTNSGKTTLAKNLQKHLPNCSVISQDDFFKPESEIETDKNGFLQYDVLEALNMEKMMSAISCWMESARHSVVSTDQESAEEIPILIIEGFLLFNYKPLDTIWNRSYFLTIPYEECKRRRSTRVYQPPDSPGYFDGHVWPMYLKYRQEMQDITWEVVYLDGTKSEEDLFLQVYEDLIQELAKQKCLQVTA

Experiments:
Test in all cases: log2 fold change, soluble protein after heating vs DMSO (PISA); higher = thermal stabilisation; K562 cells, 10 uM, 30 min; active = over 0.2 and 3.5 SD of the protein, either way, in both replicates (recomputed)
[1] = compound: CS(=O)(=O)c1ccc(-c2cnc(N)c(C(=O)Nc3ccccc3)n2)cc1
Procedure, shortened: (§1)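 K562 cells at 2×10^6 cells/mL were exposed to 10 μM compound for 30 min, then aliquots were heated for 3 min across 48°C-58°C, pooled, and extracted in PBS containing 0.5% NP-40 at 4°C. The supernatant after 21,000xg for 90 min was taken as soluble protein and measured by TMTpro 16plex LC-MS/MS with channel sums equalised. Thermal stability is reported relative to control samples, with values from duplicates. Fold changes are given on a log2 scale.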

crizotinib = compound: C[C@@H](Oc1cc(-c2cnn(C3CCNCC3)c2)cnc1N)c1c(Cl)ccc(F)c1Cl [crizotinib]
Procedure, shortened: as §1

[2] = compound: C[C@@H]1COCCN1C2=NC(=NC(=C2)C3(CC3)S(=O)(=O)C)C4=C5C=CNC5=CC=C4
Procedure, shortened: as §1

[3] = compound: C[C@H](C1=CC=C(C=C1)C(=O)NC2=C3C=CNC3=NC=C2)N
Procedure, shortened: as §1

gandotinib = compound: Cc1cc(Nc2cc(CN3CCOCC3)c3nc(C)c(Cc4ccc(Cl)cc4F)n3n2)n[nH]1 [gandotinib]
Procedure, shortened: as §1

[4] = compound: Cc1cc(SCc2sc(-c3ccc(C(F)(F)F)cc3)nc2C)ccc1OCC(=O)O
Procedure, shortened: as §1

doramapimod = compound: Cc1ccc(-n2nc(C(C)(C)C)cc2NC(=O)Nc2ccc(OCCN3CCOCC3)c3ccccc23)cc1 [doramapimod]
Procedure, shortened: as §1

ispinesib = compound: Cc1ccc(C(=O)N(CCCN)[C@@H](c2nc3cc(Cl)ccc3c(=O)n2Cc2ccccc2)C(C)C)cc1 [ispinesib]
Procedure, shortened: as §1

[5] = compound: Cc1cccc(CC(=O)N2CCc3c2ccc(-c2cn(C)c4ncnc(N)c24)c3F)n1
Procedure, shortened: as §1

nilotinib = compound: Cc1cn(-c2cc(NC(=O)c3ccc(C)c(Nc4nccc(-c5cccnc5)n4)c3)cc(C(F)(F)F)c2)cn1 [nilotinib]
Procedure, shortened: as §1

[6] = compound: Cc1nc(Nc2n[nH]c3c2CN(C(=O)N[C@H](CN(C)C)c2ccccc2)C3(C)C)c2sccc2n1
Procedure, shortened: as §1

dasatinib = compound: Cc1nc(Nc2ncc(C(=O)Nc3c(C)cccc3Cl)s2)cc(N2CCN(CCO)CC2)n1 [dasatinib]
Procedure, shortened: as §1

[7] = compound: Cc1ncc(-c2ccnc(Nc3ccc(S(C)(=O)=O)cc3)n2)n1C(C)C
Procedure, shortened: as §1

[8] = compound: Cn1cc(-c2ccc3c(c2)CCN3C(=O)Cc2cccc(C(F)(F)F)c2)c2c(N)ncnc21
Procedure, shortened: as §1

[9] = compound: Cn1cc(-c2ccc3nnc(C(F)(F)c4ccc5ncccc5c4)n3n2)cn1
Procedure, shortened: as §1

tipifarnib = compound: Cn1cncc1[C@@](N)(c1ccc(Cl)cc1)c1ccc2c(c1)c(-c1cccc(Cl)c1)cc(=O)n2C [tipifarnib]
Procedure, shortened: as §1

mubritinib = compound: FC(F)(F)c1ccc(/C=C/c2nc(COc3ccc(CCCCn4ccnn4)cc3)co2)cc1 [mubritinib]
Procedure, shortened: as §1

bafetinib = compound: Cc1ccc(NC(=O)c2ccc(CN3CC[C@H](N(C)C)C3)c(C(F)(F)F)c2)cc1Nc1nccc(-c2cncnc2)n1 [bafetinib]
Procedure, shortened: as §1

duvelisib = compound: C[C@H](Nc1ncnc2nc[nH]c12)c1cc2cccc(Cl)c2c(=O)n1-c1ccccc1 [duvelisib]
Procedure, shortened: as §1

tozasertib = compound: Cc1cc(Nc2cc(N3CCN(C)CC3)nc(Sc3ccc(NC(=O)C4CC4)cc3)n2)n[nH]1 [tozasertib]
Procedure, shortened: as §1

Target | log2 fold change [1] | log2 fold change (crizotinib) | log2 fold change [2] | log2 fold change [3] | log2 fold change (gandotinib) | log2 fold change [4] | log2 fold change (doramapimod) | log2 fold change (ispinesib) | log2 fold change [5] | log2 fold change (nilotinib) | log2 fold change [6] | log2 fold change (dasatinib) | log2 fold change [7] | log2 fold change [8] | log2 fold change [9] | log2 fold change (tipifarnib) | log2 fold change (mubritinib) | log2 fold change (bafetinib) | log2 fold change (duvelisib) | log2 fold change (tozasertib)
NEK3 (UniProt P51956) | inactive: -0.086 | inactive: 0.08 | inactive: 0.19 | inactive: -0.19 | inactive: 0.103 | inactive: 0.05 | inactive: -0.014 | inactive: -0.006 | inactive: -0.246 | inactive: -0.026 | inactive: -0.173 | inactive: -0.055 | inactive: -0.037 | inactive: 0.101 | inactive: -0.002 | inactive: -0.088 | inactive: -0.076 | – | – | –
NFYB (UniProt P25208) | inactive: -0.004 | inactive: 0.069 | – | inactive: -0.084 | inactive: 0.011 | inactive: -0.124 | inactive: -0.028 | inactive: 0.168 | inactive: -0.006 | inactive: 0.074 | inactive: -0.067 | inactive: 0.124 | inactive: 0.034 | inactive: -0.012 | inactive: -0.06 | inactive: -0.019 | inactive: 0.127 | inactive: -0.086 | – | –
NFATC2 (UniProt Q13469) | inactive: 0 | inactive: -0.154 | inactive: -0.175 | inactive: 0 | inactive: 0.048 | inactive: 0.024 | inactive: 0.027 | inactive: -0.18 | inactive: 0.066 | inactive: -0.135 | inactive: -0.341 | inactive: -0.213 | active: -0.445 | inactive: -0.025 | inactive: -0.075 | inactive: -0.029 | inactive: -0.124 | inactive: 0.006 | – | –
NFX1 (UniProt Q12986) | inactive: -0.024 | inactive: -0.232 | inactive: -0.315 | inactive: 0.09 | inactive: 0.21 | inactive: -0.164 | inactive: 0.293 | inactive: -0.202 | inactive: -0.026 | inactive: -0.042 | inactive: 0.075 | inactive: 0.085 | inactive: -0.011 | inactive: 0.07 | inactive: -0.15 | inactive: 0.131 | inactive: -0.096 | inactive: -0.044 | – | –
NELFB isoform 2 (UniProt Q8WX92) | inactive: 0.059 | inactive: 0.019 | inactive: 0.087 | inactive: -0.08 | inactive: -0.093 | inactive: 0.086 | inactive: -0.087 | inactive: 0.042 | inactive: 0.046 | inactive: -0.135 | inactive: -0.123 | inactive: -0.189 | inactive: 0.05 | inactive: 0.032 | inactive: 0.014 | inactive: -0.081 | inactive: 0.03 | inactive: -0.088 | – | –
NNMT (UniProt P40261) | inactive: 0.039 | inactive: -0.08 | inactive: 0.085 | inactive: -0.06 | inactive: -0.002 | inactive: -0.09 | inactive: 0 | – | inactive: 0.068 | inactive: 0.015 | inactive: 0.005 | inactive: 0.037 | inactive: -0.021 | inactive: 0.052 | – | inactive: -0.002 | inactive: 0.094 | inactive: -0.038 | – | –
NMD3 (UniProt Q96D46) | inactive: 0.094 | inactive: 0.003 | inactive: 0.122 | inactive: -0.179 | inactive: 0.007 | inactive: 0.03 | inactive: -0.013 | inactive: 0.139 | inactive: 0.03 | inactive: 0.025 | active: 0.316 | inactive: 0.014 | inactive: 0.123 | inactive: 0.083 | inactive: 0.028 | inactive: -0.107 | inactive: 0.083 | inactive: 0.071 | – | –
NSL1 (UniProt Q96IY1) | inactive: -0.067 | inactive: 0.061 | – | inactive: -0.026 | inactive: 0.002 | inactive: 0.029 | inactive: 0.058 | inactive: -0.058 | inactive: 0.078 | inactive: -0.035 | inactive: -0.175 | inactive: -0.111 | inactive: 0.006 | inactive: 0.084 | inactive: -0.077 | inactive: -0.015 | inactive: 0.015 | inactive: 0.048 | inactive: 0.085 | inactive: -0.064
NMRAL1 (UniProt Q9HBL8) | inactive: 0.228 | inactive: 0.469 | inactive: 0.054 | inactive: 0.04 | inactive: -0.169 | inactive: -0.009 | inactive: 0.001 | inactive: -0.103 | inactive: -0.026 | active: 1.29 | inactive: 0.024 | inactive: -0.071 | inactive: -0.018 | inactive: 0.031 | active: 0.962 | inactive: -0.035 | inactive: -0.145 | active: 0.806 | – | –
NFATC2IP (UniProt Q8NCF5) | inactive: 0.014 | inactive: 0.023 | inactive: 0.195 | inactive: -0.009 | inactive: 0.011 | inactive: 0.045 | inactive: -0.03 | inactive: 0.024 | inactive: -0.029 | inactive: 0.001 | inactive: -0.153 | inactive: -0.096 | inactive: -0.146 | inactive: 0.097 | inactive: 0.049 | inactive: -0.003 | inactive: 0.051 | inactive: 0.065 | – | –
NR2C2 isoform 2 (UniProt P49116) | inactive: 0.016 | inactive: 0.063 | inactive: 0.054 | inactive: -0.076 | inactive: -0.047 | inactive: 0.022 | inactive: 0.011 | inactive: 0.009 | inactive: 0.027 | inactive: -0.033 | inactive: -0.091 | inactive: -0.026 | inactive: 0.021 | inactive: -0.003 | inactive: -0.038 | inactive: -0.184 | inactive: 0.026 | inactive: -0.093 | – | –
NOP53 (UniProt Q9NZM5) | inactive: -0.116 | inactive: 0.029 | inactive: -0.019 | inactive: 0.638 | inactive: 0.377 | inactive: -0.027 | inactive: 0.277 | inactive: 0.015 | inactive: 0.059 | inactive: 0.039 | inactive: 0.217 | inactive: 0.147 | inactive: 0.027 | inactive: -0.339 | inactive: -0.178 | inactive: 0.161 | inactive: -0.202 | inactive: 0.189 | – | –
NPEPPS (UniProt P55786) | inactive: 0.019 | inactive: -0.14 | inactive: 0.122 | inactive: -0.039 | inactive: -0.03 | inactive: -0.012 | inactive: 0.013 | inactive: 0.082 | inactive: 0.011 | inactive: 0.002 | inactive: 0.121 | inactive: -0.083 | inactive: -0.063 | inactive: 0.085 | inactive: 0.02 | inactive: -0.032 | inactive: 0.102 | inactive: 0.031 | – | –
NOL7 (UniProt Q9UMY1) | inactive: -0.054 | inactive: 0.065 | inactive: -0.661 | inactive: 0.415 | inactive: 0.124 | inactive: 0.003 | inactive: 0.187 | inactive: -0.052 | inactive: -0.107 | inactive: -0.016 | inactive: 0.146 | inactive: 0.183 | inactive: -0.073 | inactive: -0.257 | inactive: -0.148 | inactive: 0.154 | inactive: -0.156 | inactive: 0.284 | – | –
NMT1 (UniProt P30419) | inactive: 0.085 | inactive: -0.17 | inactive: -0.058 | inactive: -0.032 | inactive: 0.066 | inactive: -0.003 | inactive: 0 | inactive: -0.164 | inactive: -0.026 | inactive: 0.049 | inactive: 0.06 | inactive: -0.012 | inactive: -0.003 | inactive: 0.026 | inactive: -0.001 | inactive: -0.026 | inactive: 0.076 | inactive: 0.064 | – | –
NEU3 isoform 2 (UniProt Q9UQ49) | inactive: 0.062 | – | – | – | – | – | – | – | – | – | – | – | – | – | – | inactive: 0.044 | – | – | – | –
NME4 (UniProt O00746) | – | – | – | – | inactive: -0.031 | – | – | inactive: 0.042 | inactive: -0.098 | – | – | – | – | – | inactive: -0.122 | – | inactive: -0.166 | – | – | –
NMRK1 (UniProt Q9NWW6) | – | – | – | – | – | inactive: 0.031 | – | – | – | – | – | inactive: 0 | – | – | – | – | – | – | inactive: -0.094 | –

Five consecutive entries out of the list so far, for reference:
Target | log2 fold change [1] | log2 fold change (crizotinib) | log2 fold change [2] | log2 fold change [3] | log2 fold change (gandotinib) | log2 fold change [4] | log2 fold change (doramapimod) | log2 fold change (ispinesib) | log2 fold change [5] | log2 fold change (nilotinib) | log2 fold change [6] | log2 fold change (dasatinib) | log2 fold change [7] | log2 fold change [8] | log2 fold change [9] | log2 fold change (tipifarnib) | log2 fold change (mubritinib) | log2 fold change (bafetinib) | log2 fold change (duvelisib) | log2 fold change (tozasertib)
NFATC2IP (UniProt Q8NCF5) | inactive: 0.014 | inactive: 0.023 | inactive: 0.195 | inactive: -0.009 | inactive: 0.011 | inactive: 0.045 | inactive: -0.03 | inactive: 0.024 | inactive: -0.029 | inactive: 0.001 | inactive: -0.153 | inactive: -0.096 | inactive: -0.146 | inactive: 0.097 | inactive: 0.049 | inactive: -0.003 | inactive: 0.051 | inactive: 0.065 | – | –
NR2C2 isoform 2 (UniProt P49116) | inactive: 0.016 | inactive: 0.063 | inactive: 0.054 | inactive: -0.076 | inactive: -0.047 | inactive: 0.022 | inactive: 0.011 | inactive: 0.009 | inactive: 0.027 | inactive: -0.033 | inactive: -0.091 | inactive: -0.026 | inactive: 0.021 | inactive: -0.003 | inactive: -0.038 | inactive: -0.184 | inactive: 0.026 | inactive: -0.093 | – | –
NOP53 (UniProt Q9NZM5) | inactive: -0.116 | inactive: 0.029 | inactive: -0.019 | inactive: 0.638 | inactive: 0.377 | inactive: -0.027 | inactive: 0.277 | inactive: 0.015 | inactive: 0.059 | inactive: 0.039 | inactive: 0.217 | inactive: 0.147 | inactive: 0.027 | inactive: -0.339 | inactive: -0.178 | inactive: 0.161 | inactive: -0.202 | inactive: 0.189 | – | –
NPEPPS (UniProt P55786) | inactive: 0.019 | inactive: -0.14 | inactive: 0.122 | inactive: -0.039 | inactive: -0.03 | inactive: -0.012 | inactive: 0.013 | inactive: 0.082 | inactive: 0.011 | inactive: 0.002 | inactive: 0.121 | inactive: -0.083 | inactive: -0.063 | inactive: 0.085 | inactive: 0.02 | inactive: -0.032 | inactive: 0.102 | inactive: 0.031 | – | –
NOL7 (UniProt Q9UMY1) | inactive: -0.054 | inactive: 0.065 | inactive: -0.661 | inactive: 0.415 | inactive: 0.124 | inactive: 0.003 | inactive: 0.187 | inactive: -0.052 | inactive: -0.107 | inactive: -0.016 | inactive: 0.146 | inactive: 0.183 | inactive: -0.073 | inactive: -0.257 | inactive: -0.148 | inactive: 0.154 | inactive: -0.156 | inactive: 0.284 | – | –
